Reference: PubChem BioAssay AID1259274 (Sanger Institute, 2017)
In all, the deposit lists 794 reagents; this is a part drawn at random. 11 of all reagents (1.4%) count as active. 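Calls rest on knock-down without drug only; synergy scores with anchor drugs were not used for the essential call.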 Not all columns of the deposit are shown. Not stated in the record: the amount of reagent, the time to read-out.

Assay: 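Kinase knock-downs that cut colorectal cancer cell viability or boost drug killing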 (primary screen)
Cell system: human RKO colorectal cancer cells
Reagent: siRNA pool against human genes
Treatment: anchor drugs BYL719 at 1 µM, cetuximab at 5 µg/ml or trametinib at 10 nM; DMSO vehicle as the no-drug arm
Detection: 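Viability of cells versus control pool 2 (non-targeting) averaged across replicates; knock-down-only robust z-score; for every anchor drug (BYL719, cetuximab, trametinib) a synergy score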
Scale: viability z-score, siRNA alone: higher = more viable cells; low values mean essential gene
Active means: 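a single knock-down scoring under -3 on the robust z-score, meaning fewer cells, counts as essential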
Meaning of the calls: active = essential when knocked down alone; inactive = no change alone

no.	gene	viability z-score, siRNA alone	activity call
1	ATRX (GeneID 546)	-0.364	inactive
2	FLT1 (GeneID 2321)	1.19	inactive
3	CREBBP (GeneID 1387)	-3.24	active
4	ALPK3 (GeneID 57538)	1.19	inactive
5	TWF1 (GeneID 5756)	0.198	inactive
6	GUCY2D (GeneID 3000)	-1.22	inactive
7	MST1R (GeneID 4486)	0.772	inactive
8	KDR (GeneID 3791)	0.675	inactive
9	CDKL2 (GeneID 8999)	0.0385	inactive
10	WNK3 (GeneID 65267)	1.01	inactive
11	SIK1 (GeneID 150094)	0.0405	inactive
12	SPHK2 (GeneID 56848)	1.19	inactive
13	TP53BP1 (GeneID 7158)	0.257	inactive
14	PFKFB1 (GeneID 5207)	0.403	inactive
15	MAGI1 (GeneID 9223)	-0.411	inactive
16	BRAF (GeneID 673)	-1.87	inactive
17	TAB1 (GeneID 10454)	-0.329	inactive
18	PIM3 (GeneID 415116)	1.12	inactive
19	TRIB3 (GeneID 57761)	1.14	inactive
20	TSKS (GeneID 60385)	-0.306	inactive
21	EIF2AK2 (GeneID 5610)	-0.231	inactive
22	MPP2 (GeneID 4355)	-0.692	inactive
23	PIK3C2G (GeneID 5288)	-0.373	inactive
24	PDXK (GeneID 8566)	1.19	inactive
25	CAMKV (GeneID 79012)	0.294	inactive
26	PRKCI (GeneID 5584)	-1.05	inactive
27	BRD2 (GeneID 6046)	1.19	inactive
28	EGFR (GeneID 1956)	0.0718	inactive
29	BTK (GeneID 695)	-0.658	inactive
30	TTK (GeneID 7272)	-3.19	active
31	FOXP1 (GeneID 27086)	-1.34	inactive
32	PRKX (GeneID 5613)	0.731	inactive
33	SRGAP3 (GeneID 9901)	-0.155	inactive
34	TRIB2 (GeneID 28951)	1.12	inactive
35	STK35 (GeneID 140901)	1.13	inactive
36	PRKAG3 (GeneID 53632)	-2.77	inactive
37	ITPKA (GeneID 3706)	1.19	inactive
38	PRKACB (GeneID 5567)	1.19	inactive
39	DUSP21 (GeneID 63904)	1.19	inactive
40	NTRK3 (GeneID 4916)	1.19	inactive
41	DYRK2 (GeneID 8445)	0.783	inactive
42	DSTYK (GeneID 25778)	0.62	inactive
43	DGUOK (GeneID 1716)	0.169	inactive
44	ACO1 (GeneID 48)	0.271	inactive
45	MINK1 (GeneID 50488)	0.39	inactive
46	BUB1 (GeneID 699)	0.314	inactive
47	NEK10 (GeneID 152110)	0.376	inactive
48	IRAK1 (GeneID 3654)	-0.246	inactive
49	ULK2 (GeneID 9706)	-0.0826	inactive
50	CKM (GeneID 1158)	-1.52	inactive
51	MYO3B (GeneID 140469)	-0.338	inactive
52	PLK4 (GeneID 10733)	0.0249	inactive
53	PI4KB (GeneID 5298)	1.19	inactive
54	VRK3 (GeneID 51231)	-0.579	inactive
55	MAPKAPK5 (GeneID 8550)	0.569	inactive
56	MASTL (GeneID 84930)	-0.387	inactive
57	DGKK (GeneID 139189)	0.371	inactive
58	ARID1A (GeneID 8289)	-0.578	inactive
59	CIB2 (GeneID 10518)	-0.483	inactive
60	BMP2K (GeneID 55589)	0.0254	inactive
61	EIF2AK1 (GeneID 27102)	0.0182	inactive
62	KMT2B (GeneID 9757)	-1.34	inactive
63	MAST4 (GeneID 375449)	1.19	inactive

Look-ups from the list:
MASTL (GeneID 84930), viability z-score, siRNA alone: -0.387
Result for IRAK1 (GeneID 3654) under “viability z-score, siRNA alone”: -0.246
Result for ARID1A (GeneID 8289) in “activity call”: inactive
Value for MAST4 (GeneID 375449) under “viability z-score, siRNA alone”: 1.19
PRKACB (GeneID 5567), activity call = inactive
PI4KB (GeneID 5298), activity call = inactive
